PubChem BioAssay AID1259308 | NCATS, 2017
Screen: 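Knock-downs that increase output of a recombinant reporter protein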 (primary screen). System: human HEK293 embryonic kidney cells stably expressing firefly luciferase (HEK-CMV-Luc2-Hygro). Knock-down reagent: single siRNA against human genes, 0.8 pmol siRNA per well. Timing: 72 h. Measured: 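Luciferase light (ONE-Glo) measured on one replicate plate set and viability (CellTiter-Glo) on the other, scaled to a negative control siRNA, with robust z-scores and luciferase per cell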. Reading the numbers: total luciferase, z-score: higher = more reporter protein produced. Rule for the call: 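Active when the median/MAD z-score for overall luciferase is greater than 3; a gene was taken forward for validation with new siRNAs if at least two of its three siRNAs passed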. Calls: active = raised luciferase; inactive = no rise.
In all, the deposit lists about 59,000 reagents; this is a part drawn at random. About 1,510 of all reagents (2.6%) were called active. 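Calls use total luciferase alone and ignore viability, so some active siRNAs may act by altering cell number.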 Unmarked entries are inactive. The numbers tell different reagents against one gene apart. Not all columns of the deposit are shown. Reagent sequences are not shown.

Knock-down of PEX10 #1 resulted in: total luciferase, z-score -1.13.
Against PEX10 #2 the deposit lists total luciferase, z-score -0.432.
For PEX10 #3, the values are total luciferase, z-score 0.0368.
DDO #1 showed total luciferase, z-score -1.94.
With knock-down of DDO #2 the results were total luciferase, z-score -1.42.
With knock-down of DDO #3, the record shows total luciferase, z-score -2.16.
Against PLD2 #1, the entry reads total luciferase, z-score 0.528.
PLD2 #2 gave total luciferase, z-score 0.734.
For PLD2 #3, the values are total luciferase, z-score 1.4.
After knock-down of KIF4B #1, the screen gave total luciferase, z-score -0.2.
Silencing of KIF4B #2 came out at: total luciferase, z-score -1.47.
For KIF4B #3, the entry reads total luciferase, z-score 1.02.

Sorted by “total luciferase, z-score” (highest first): 4 of the entries above
PLD2 #1 | total luciferase, z-score = 0.528
DDO #2 | total luciferase, z-score = -1.42
DDO #1 | total luciferase, z-score = -1.94
DDO #3 | total luciferase, z-score = -2.16

The results go on.
Against NUTF2 #1, the values are total luciferase, z-score -0.788.
After knock-down of NUTF2 #2 the results were total luciferase, z-score -0.655.
Silencing of NUTF2 #3 resulted in: total luciferase, z-score 0.234.
After knock-down of PCSK6 #1 the results were total luciferase, z-score -0.274.
After knock-down of PCSK6 #2 the results were total luciferase, z-score 1.05.
After knock-down of PCSK6 #3 the results were total luciferase, z-score 0.834.
With knock-down of MUC22 #1 the results were total luciferase, z-score 0.312.
For MUC22 #2 the deposit lists total luciferase, z-score -0.652.
Against MUC22 #3, the entry reads total luciferase, z-score 0.39.
STT3A #1 gave total luciferase, z-score -0.205.
STT3A #2 showed total luciferase, z-score -0.528.
STT3A #3 gave total luciferase, z-score 0.497.
Knock-down of SFTPA1 #1 came out at: total luciferase, z-score -0.462.
Against SFTPA1 #2, the entry reads total luciferase, z-score 2.98.
For SFTPA1 #3, the values are total luciferase, z-score 1.15.
B3GNT5 #1 scored total luciferase, z-score -1.78.
B3GNT5 #2 scored total luciferase, z-score 1.08.
Depletion of B3GNT5 #3 gave: total luciferase, z-score 0.468.
For ERBB3 #1, the values are total luciferase, z-score 0.514.
Knock-down of ERBB3 #2 gave: total luciferase, z-score -0.162.
ERBB3 #3 scored total luciferase, z-score 1.
